# Experimental data: the supplement of paper PMC12067093, “Discovery and optimisation of a covalent ligand for TRIM25 and its application to targeted protein ubiquitination” (Chemical Science, 2025)
# Amino acid sequences for entries named in this document (tags omitted). A change or cut given only in a name is not applied to a line headed by its entry.
# UniProt Q8WV92, whole entry, looked up: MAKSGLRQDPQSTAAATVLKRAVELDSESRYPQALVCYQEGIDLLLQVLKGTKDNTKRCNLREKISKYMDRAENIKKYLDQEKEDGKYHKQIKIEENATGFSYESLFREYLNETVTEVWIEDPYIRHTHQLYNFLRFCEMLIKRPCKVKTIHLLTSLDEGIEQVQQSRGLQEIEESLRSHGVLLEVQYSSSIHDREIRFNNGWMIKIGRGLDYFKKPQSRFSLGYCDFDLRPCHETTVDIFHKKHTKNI
# UniProt P46013: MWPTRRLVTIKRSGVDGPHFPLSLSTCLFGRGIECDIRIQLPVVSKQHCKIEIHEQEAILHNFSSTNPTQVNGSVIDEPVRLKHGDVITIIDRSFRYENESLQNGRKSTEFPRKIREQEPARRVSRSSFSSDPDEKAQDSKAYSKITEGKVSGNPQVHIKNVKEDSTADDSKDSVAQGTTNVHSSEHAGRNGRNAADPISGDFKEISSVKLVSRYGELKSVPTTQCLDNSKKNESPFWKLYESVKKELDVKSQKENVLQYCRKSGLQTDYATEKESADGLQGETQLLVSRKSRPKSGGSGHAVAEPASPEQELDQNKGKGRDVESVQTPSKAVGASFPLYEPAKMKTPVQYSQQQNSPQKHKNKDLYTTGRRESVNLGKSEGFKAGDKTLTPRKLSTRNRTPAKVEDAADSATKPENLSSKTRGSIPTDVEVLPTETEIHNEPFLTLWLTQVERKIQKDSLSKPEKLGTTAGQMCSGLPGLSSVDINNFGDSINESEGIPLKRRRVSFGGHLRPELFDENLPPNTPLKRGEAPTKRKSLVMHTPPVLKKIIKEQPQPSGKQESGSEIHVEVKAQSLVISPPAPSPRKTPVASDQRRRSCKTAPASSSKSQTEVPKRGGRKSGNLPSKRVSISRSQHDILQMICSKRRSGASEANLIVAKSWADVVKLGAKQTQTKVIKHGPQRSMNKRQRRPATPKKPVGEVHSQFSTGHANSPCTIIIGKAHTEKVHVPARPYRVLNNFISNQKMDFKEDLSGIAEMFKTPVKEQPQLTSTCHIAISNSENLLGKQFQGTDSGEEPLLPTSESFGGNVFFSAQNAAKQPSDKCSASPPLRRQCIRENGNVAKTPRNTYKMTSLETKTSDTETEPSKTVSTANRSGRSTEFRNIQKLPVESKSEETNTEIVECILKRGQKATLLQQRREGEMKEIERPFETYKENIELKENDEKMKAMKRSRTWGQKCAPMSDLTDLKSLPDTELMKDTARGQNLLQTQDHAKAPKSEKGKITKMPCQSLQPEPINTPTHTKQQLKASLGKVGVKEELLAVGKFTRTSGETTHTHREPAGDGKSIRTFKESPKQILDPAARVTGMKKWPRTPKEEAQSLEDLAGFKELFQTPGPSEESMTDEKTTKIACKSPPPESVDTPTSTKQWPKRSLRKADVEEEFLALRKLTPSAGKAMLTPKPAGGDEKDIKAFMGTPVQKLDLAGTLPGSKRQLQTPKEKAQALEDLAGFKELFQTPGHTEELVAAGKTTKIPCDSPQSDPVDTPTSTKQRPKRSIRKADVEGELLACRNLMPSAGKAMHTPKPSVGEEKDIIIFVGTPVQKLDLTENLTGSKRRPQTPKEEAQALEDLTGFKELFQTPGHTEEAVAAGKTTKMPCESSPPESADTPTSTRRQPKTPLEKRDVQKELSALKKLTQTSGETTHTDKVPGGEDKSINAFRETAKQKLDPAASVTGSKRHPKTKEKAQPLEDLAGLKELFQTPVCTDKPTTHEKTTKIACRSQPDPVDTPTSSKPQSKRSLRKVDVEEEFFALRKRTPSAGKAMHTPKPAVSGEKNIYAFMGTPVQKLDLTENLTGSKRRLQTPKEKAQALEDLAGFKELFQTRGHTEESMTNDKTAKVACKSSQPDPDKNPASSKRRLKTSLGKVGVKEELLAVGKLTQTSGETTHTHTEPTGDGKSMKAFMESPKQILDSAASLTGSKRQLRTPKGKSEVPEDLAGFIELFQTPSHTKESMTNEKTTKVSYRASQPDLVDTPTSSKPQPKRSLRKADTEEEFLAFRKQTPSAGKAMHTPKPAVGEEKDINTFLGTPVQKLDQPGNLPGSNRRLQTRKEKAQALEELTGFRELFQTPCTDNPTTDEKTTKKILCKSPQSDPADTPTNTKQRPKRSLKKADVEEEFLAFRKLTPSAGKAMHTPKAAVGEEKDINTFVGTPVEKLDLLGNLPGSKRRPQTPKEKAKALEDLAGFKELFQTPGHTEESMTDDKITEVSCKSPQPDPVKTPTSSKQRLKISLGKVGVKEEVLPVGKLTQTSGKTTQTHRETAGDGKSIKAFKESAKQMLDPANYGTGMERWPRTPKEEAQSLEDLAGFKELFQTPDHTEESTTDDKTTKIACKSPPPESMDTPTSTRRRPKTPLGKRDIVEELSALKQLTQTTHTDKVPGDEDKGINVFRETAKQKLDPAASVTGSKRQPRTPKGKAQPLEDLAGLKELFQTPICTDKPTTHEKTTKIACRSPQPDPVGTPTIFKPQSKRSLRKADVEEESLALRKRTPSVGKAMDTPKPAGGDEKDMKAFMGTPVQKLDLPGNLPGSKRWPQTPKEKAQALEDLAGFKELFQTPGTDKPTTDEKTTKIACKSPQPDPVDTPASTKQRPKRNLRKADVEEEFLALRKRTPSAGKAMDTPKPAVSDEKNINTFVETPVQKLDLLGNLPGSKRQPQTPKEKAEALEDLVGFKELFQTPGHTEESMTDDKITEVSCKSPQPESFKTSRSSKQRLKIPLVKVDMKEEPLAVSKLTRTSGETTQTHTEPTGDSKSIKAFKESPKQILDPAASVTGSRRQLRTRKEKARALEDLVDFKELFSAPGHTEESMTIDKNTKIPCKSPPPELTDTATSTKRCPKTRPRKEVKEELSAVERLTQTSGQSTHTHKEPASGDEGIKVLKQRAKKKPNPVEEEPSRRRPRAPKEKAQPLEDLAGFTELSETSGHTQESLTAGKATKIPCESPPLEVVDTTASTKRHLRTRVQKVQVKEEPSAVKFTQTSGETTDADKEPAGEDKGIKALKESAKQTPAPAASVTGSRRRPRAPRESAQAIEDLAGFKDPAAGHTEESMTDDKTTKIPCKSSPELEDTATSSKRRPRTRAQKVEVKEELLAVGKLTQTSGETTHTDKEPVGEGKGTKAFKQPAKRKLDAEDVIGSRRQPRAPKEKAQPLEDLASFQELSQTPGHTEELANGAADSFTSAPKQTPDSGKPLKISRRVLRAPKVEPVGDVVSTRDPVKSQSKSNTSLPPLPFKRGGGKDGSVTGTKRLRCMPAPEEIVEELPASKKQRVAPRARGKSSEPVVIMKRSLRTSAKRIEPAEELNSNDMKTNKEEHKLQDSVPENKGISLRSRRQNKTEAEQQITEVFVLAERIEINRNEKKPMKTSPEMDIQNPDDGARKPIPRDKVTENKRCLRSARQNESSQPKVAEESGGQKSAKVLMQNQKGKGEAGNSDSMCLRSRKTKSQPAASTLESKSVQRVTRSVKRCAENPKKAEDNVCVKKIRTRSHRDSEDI
# UniProt Q86YT6, whole entry, looked up: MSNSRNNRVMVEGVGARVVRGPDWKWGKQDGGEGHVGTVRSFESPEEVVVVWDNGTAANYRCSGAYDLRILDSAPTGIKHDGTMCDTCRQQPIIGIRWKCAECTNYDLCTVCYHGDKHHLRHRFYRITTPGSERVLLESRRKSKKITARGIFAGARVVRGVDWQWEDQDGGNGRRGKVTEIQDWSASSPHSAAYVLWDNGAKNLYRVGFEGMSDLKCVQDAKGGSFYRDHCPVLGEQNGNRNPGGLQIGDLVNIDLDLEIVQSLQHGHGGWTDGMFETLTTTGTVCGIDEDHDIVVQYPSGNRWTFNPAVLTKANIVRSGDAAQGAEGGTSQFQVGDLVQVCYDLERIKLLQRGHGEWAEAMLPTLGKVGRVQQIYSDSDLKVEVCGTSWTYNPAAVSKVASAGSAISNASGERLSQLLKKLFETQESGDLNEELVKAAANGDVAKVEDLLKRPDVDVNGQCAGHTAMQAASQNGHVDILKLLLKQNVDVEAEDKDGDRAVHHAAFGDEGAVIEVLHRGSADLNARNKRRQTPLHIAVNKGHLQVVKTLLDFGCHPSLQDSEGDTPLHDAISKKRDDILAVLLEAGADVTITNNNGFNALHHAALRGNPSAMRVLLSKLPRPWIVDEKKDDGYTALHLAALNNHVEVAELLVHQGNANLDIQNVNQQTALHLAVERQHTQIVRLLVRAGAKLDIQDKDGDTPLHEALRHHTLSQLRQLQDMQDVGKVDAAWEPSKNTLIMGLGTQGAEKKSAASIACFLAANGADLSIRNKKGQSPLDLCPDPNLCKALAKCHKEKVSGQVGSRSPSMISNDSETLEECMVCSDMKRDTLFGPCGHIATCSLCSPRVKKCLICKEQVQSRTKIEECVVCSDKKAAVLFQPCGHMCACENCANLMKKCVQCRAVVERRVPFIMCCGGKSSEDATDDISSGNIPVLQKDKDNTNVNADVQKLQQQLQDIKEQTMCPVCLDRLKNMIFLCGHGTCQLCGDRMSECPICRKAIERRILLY
# UniProt Q9UL63, whole entry, looked up: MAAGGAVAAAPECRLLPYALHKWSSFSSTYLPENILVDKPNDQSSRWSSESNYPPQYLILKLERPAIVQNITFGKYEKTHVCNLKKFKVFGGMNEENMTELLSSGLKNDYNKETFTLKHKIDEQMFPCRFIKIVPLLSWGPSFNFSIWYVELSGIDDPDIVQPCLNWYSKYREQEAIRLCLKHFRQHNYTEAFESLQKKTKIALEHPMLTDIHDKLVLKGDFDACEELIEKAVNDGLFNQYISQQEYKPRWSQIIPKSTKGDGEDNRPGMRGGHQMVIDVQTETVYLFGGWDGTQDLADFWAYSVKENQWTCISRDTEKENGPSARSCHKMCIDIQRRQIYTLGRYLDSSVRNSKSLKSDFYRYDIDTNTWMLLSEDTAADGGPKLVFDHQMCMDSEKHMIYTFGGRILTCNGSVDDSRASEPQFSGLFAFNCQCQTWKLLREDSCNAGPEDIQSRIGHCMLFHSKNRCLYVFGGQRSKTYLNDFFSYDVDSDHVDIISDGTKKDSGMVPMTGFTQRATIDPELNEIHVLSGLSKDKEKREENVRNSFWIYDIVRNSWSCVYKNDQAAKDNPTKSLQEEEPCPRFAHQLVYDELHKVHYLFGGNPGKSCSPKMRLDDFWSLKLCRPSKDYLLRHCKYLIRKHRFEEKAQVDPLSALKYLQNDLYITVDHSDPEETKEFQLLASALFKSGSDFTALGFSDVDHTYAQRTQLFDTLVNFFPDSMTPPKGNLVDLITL
# UniProt Q96BX8: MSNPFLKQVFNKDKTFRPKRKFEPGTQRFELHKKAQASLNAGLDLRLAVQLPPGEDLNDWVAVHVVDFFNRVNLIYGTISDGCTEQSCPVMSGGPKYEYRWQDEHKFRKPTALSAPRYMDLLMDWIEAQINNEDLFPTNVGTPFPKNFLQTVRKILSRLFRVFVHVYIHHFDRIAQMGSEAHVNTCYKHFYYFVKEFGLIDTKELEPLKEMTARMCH
# UniProt P51948: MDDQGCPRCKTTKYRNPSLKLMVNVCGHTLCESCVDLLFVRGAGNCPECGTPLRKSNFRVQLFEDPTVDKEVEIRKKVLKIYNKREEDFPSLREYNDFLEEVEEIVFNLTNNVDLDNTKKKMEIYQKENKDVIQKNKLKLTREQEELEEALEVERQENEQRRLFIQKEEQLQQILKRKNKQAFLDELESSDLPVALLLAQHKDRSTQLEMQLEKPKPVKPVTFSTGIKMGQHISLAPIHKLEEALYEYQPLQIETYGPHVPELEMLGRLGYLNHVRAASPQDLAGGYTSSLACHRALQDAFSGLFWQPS
# UniProt A9UHW6: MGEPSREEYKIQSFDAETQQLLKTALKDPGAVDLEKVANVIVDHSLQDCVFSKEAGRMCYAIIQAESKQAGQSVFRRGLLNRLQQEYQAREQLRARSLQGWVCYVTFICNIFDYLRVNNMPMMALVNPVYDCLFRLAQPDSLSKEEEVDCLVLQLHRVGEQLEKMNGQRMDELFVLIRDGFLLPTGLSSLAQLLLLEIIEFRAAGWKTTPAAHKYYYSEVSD
# UniProt Q00013: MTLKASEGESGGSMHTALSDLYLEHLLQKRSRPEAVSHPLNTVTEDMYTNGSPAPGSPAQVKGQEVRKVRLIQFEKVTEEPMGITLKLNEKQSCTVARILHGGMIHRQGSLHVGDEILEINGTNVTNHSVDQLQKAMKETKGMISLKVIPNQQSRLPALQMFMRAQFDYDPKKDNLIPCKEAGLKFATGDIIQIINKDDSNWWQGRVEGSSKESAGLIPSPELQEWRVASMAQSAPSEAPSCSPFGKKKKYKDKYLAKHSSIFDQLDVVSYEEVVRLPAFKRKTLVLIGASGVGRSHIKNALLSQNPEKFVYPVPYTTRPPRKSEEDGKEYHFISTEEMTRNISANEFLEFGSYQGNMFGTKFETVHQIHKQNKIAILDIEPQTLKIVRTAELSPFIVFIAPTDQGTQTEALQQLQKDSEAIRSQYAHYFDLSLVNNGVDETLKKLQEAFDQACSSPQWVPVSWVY
# Some of the results follow.
# Compound: Cc1cc(ccc1-c1ccccc1)C(=O)N1CCCN(CC1)C(=O)CCl [compound 10]
# Experiment: probe-labelled cysteine peptide fold change vs DMSO (competition) (log2 fold change); higher = less target engagement (more negative = stronger competition)
# Settings: 10 µM; THP-1; incubation time: 4 h
# 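Further: competitive profiling in live THP-1 cells: cysteine peptides tagged with an iodoacetamide desthiobiotin (IA-DTB) probe, intensity after compound treatment relative to DMSO-treated cells.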
row,Target,probe-labelled cysteine peptide fold change
1,MITD1_Q8WV92_233_FSLGYCDFDLRPCHETTVDIFHKK (UniProt Q8WV92),-0.0168
2,MINK1_Q8N4C8_269_FIDFIDTCLIK (UniProt Q8N4C8),-0.175
3,MRC2_Q9UBG0_481_DSLEDCVTIWGPEGR (UniProt Q9UBG0),0.321
4,MKNK1_Q9BUB5_231_ICDFDLGSGMK (UniProt Q9BUB5),-0.302
5,MLKL_Q8NB16_437_QQEPLGEDCPSELR (UniProt Q8NB16),-0.194
6,MORC3_Q14149_15_LSALCPK (UniProt Q14149),-0.27
7,MOCS3_O95396_179_RYDVVADCSDNVPTR (UniProt O95396),-0.0414
8,MKS1_Q9NXB0_226_KYEHVLCTLK (UniProt Q9NXB0),-0.112
9,MINK1_Q8N4C8_129_EDCIAYICR (UniProt Q8N4C8),-0.0748
10,MKI67_P46013_1007_MPCQSLQPEPINTPTHTK (UniProt P46013),-0.0644
11,MICAL1_Q8TDZ2_727+747_CHTCEATLWPGGYEQHPGDGHFYCLQHLPQTDHK (UniProt Q8TDZ2),0.0338
12,MIER1_Q8N108_293_EELSVWTEEECRNFEQGLK (UniProt Q8N108),-0.106
13,MRPL58_Q14197_82_LTISYCR (UniProt Q14197),0.00862
14,MIB1_Q86YT6_462_RPDVDVNGQCAGHTAMQAASQNGHVDILK (UniProt Q86YT6),0.253
15,MRPL35_Q9NZE8_150_EFVFCNK (UniProt Q9NZE8),-0.362
16,MRPL45_Q9BRJ2_168_LHTLVTEHCFPDMTWDIK (UniProt Q9BRJ2),0.0936
17,MKLN1_Q9UL63_128_HKIDEQMFPCR (UniProt Q9UL63),0.0221
18,MRC2_Q9UBG0_1234_TTSCDTK (UniProt Q9UBG0),-0.27
19,MRPL14_Q6P1L8_90_ALIVGHCMPGPR (UniProt Q6P1L8),-0.313

row,Target,probe-labelled cysteine peptide fold change
1,MIA3_Q5JRA6_1513_AGLEDECK (UniProt Q5JRA6),0.397
2,MOB3A_Q96BX8_186_IAQMGSEAHVNTCYK (UniProt Q96BX8),-0.137
3,MICAL1_Q8TDZ2_87+95_CLVVGAGPCGLR (UniProt Q8TDZ2),-0.00296
4,MICALL1_Q8N3F8_597_GSSGPQPAKPCSGATPTPLLLVGDR (UniProt Q8N3F8),-0.17
5,MOV10_Q9HCE1_172_NGGTQSVTLTHLFPLCR (UniProt Q9HCE1),0.174
6,MMTAG2_Q9BU76_103_EDFAEVCKR (UniProt Q9BU76),-0.168
7,MNAT1_P51948_49_GAGNCPECGTPLR (UniProt P51948),0.196
8,MMS19_Q96T76_331_VEAEGLAALHSLTACLSR (UniProt Q96T76),0.123
9,MLH1_P40692_494_EMTAACTPR (UniProt P40692),-0.182
10,MIS18BP1_Q6P0N0_870_HPLECLPGLIQDK (UniProt Q6P0N0),0.0139
11,MKI67_P46013_261_ENVLQYCR (UniProt P46013),-0.303
12,MIF4GD_A9UHW6_150_EEEVDCLVLQLHR (UniProt A9UHW6),0.255
13,MKI67_P46013_27_SGVDGPHFPLSLSTCLFGR (UniProt P46013),0.331
14,MORC2_Q9Y6X9_127_KEDTMTCLFLSR (UniProt Q9Y6X9),0.138
15,MKLN1_Q9UL63_469_CLYVFGGQR (UniProt Q9UL63),0.0117
16,MPG_P29372_56_AGQPHSSSDAAQAPAEQPHSSSDAAQAPCPR (UniProt P29372),-0.206
17,MLKL_Q8NB16_437_RQQEPLGEDCPSELR (UniProt Q8NB16),-0.131
18,MPP1_Q00013_242_VASMAQSAPSEAPSCSPFGK (UniProt Q00013),-0.101

# Same assay, conditions: 50 µM; THP-1; incubation time: 4 h
row,Target,probe-labelled cysteine peptide fold change
1,MITD1_Q8WV92_233_FSLGYCDFDLRPCHETTVDIFHKK (UniProt Q8WV92),-0.319
2,MINK1_Q8N4C8_269_FIDFIDTCLIK (UniProt Q8N4C8),0.104
3,MRC2_Q9UBG0_481_DSLEDCVTIWGPEGR (UniProt Q9UBG0),-0.0784
4,MKNK1_Q9BUB5_231_ICDFDLGSGMK (UniProt Q9BUB5),0.127
5,MLKL_Q8NB16_437_QQEPLGEDCPSELR (UniProt Q8NB16),0.11
6,MORC3_Q14149_15_LSALCPK (UniProt Q14149),-1.37
7,MOCS3_O95396_179_RYDVVADCSDNVPTR (UniProt O95396),0.0957
8,MKS1_Q9NXB0_226_KYEHVLCTLK (UniProt Q9NXB0),0.305
9,MINK1_Q8N4C8_129_EDCIAYICR (UniProt Q8N4C8),0.0162
10,MKI67_P46013_1007_MPCQSLQPEPINTPTHTK (UniProt P46013),-0.576
11,MICAL1_Q8TDZ2_727+747_CHTCEATLWPGGYEQHPGDGHFYCLQHLPQTDHK (UniProt Q8TDZ2),-0.332
12,MIER1_Q8N108_293_EELSVWTEEECRNFEQGLK (UniProt Q8N108),-0.195
13,MRPL58_Q14197_82_LTISYCR (UniProt Q14197),-0.355
14,MIB1_Q86YT6_462_RPDVDVNGQCAGHTAMQAASQNGHVDILK (UniProt Q86YT6),-0.26
15,MRPL35_Q9NZE8_150_EFVFCNK (UniProt Q9NZE8),-0.257
16,MRPL45_Q9BRJ2_168_LHTLVTEHCFPDMTWDIK (UniProt Q9BRJ2),0.3
17,MKLN1_Q9UL63_128_HKIDEQMFPCR (UniProt Q9UL63),-0.00626
18,MRC2_Q9UBG0_1234_TTSCDTK (UniProt Q9UBG0),-0.499
19,MRPL14_Q6P1L8_90_ALIVGHCMPGPR (UniProt Q6P1L8),-0.357

row,Target,probe-labelled cysteine peptide fold change
1,MIA3_Q5JRA6_1513_AGLEDECK (UniProt Q5JRA6),0.352
2,MOB3A_Q96BX8_186_IAQMGSEAHVNTCYK (UniProt Q96BX8),0.206
3,MICAL1_Q8TDZ2_87+95_CLVVGAGPCGLR (UniProt Q8TDZ2),-0.103
4,MICALL1_Q8N3F8_597_GSSGPQPAKPCSGATPTPLLLVGDR (UniProt Q8N3F8),-0.459
5,MOV10_Q9HCE1_172_NGGTQSVTLTHLFPLCR (UniProt Q9HCE1),0.271
6,MMTAG2_Q9BU76_103_EDFAEVCKR (UniProt Q9BU76),-0.321
7,MNAT1_P51948_49_GAGNCPECGTPLR (UniProt P51948),0.366
8,MMS19_Q96T76_331_VEAEGLAALHSLTACLSR (UniProt Q96T76),-0.044
9,MLH1_P40692_494_EMTAACTPR (UniProt P40692),-0.12
10,MIS18BP1_Q6P0N0_870_HPLECLPGLIQDK (UniProt Q6P0N0),0.121
11,MKI67_P46013_261_ENVLQYCR (UniProt P46013),-0.455
12,MIF4GD_A9UHW6_150_EEEVDCLVLQLHR (UniProt A9UHW6),0.733
13,MKI67_P46013_27_SGVDGPHFPLSLSTCLFGR (UniProt P46013),-0.0578
14,MORC2_Q9Y6X9_127_KEDTMTCLFLSR (UniProt Q9Y6X9),0.165
15,MKLN1_Q9UL63_469_CLYVFGGQR (UniProt Q9UL63),0.0962
16,MPG_P29372_56_AGQPHSSSDAAQAPAEQPHSSSDAAQAPCPR (UniProt P29372),-0.0477
17,MLKL_Q8NB16_437_RQQEPLGEDCPSELR (UniProt Q8NB16),0.119
18,MPP1_Q00013_242_VASMAQSAPSEAPSCSPFGK (UniProt Q00013),-0.796
